Laboratory results from paper PMC9499238, “SIRT5 is a proviral factor that interacts with SARS-CoV-2 Nsp14 protein” (PLoS Pathogens, 2022).

Molecular target: SARS-CoV-2 Nsp14 with a C-terminal 2xStrep affinity tag (SARS-CoV-2) (UniProt P0DTD1)
Test: affinity purification with mass spectrometry

“IMDH2, human, endogenous (from UniProt P12268 1-514)” was tested, and the binding was “binds”.

B1: GLA, human, endogenous (protein, UniProt P06280 32-429)
chain: LDNGLARTPTMGWLHWERFMCNLDCQEEPDSCISEKLFMEMAELMVSEGWKDAGYEYLCIDDCWMAPQRDSEGRLQADPQRFPHGIRQLANYVHSKGLKLGIYADVGNKTCAGFPGSFGYYDIDAQTFADWGVDLLKFDGCYCDSLENLADGYKHMSLALNRTGRSIVYSCEWPLYMWPFQKPNYTEIRQYCNHWRNFADIDDSWKSIKSILDWTSFNQERIVDVAGPGGWNDPDMLVIGNFGLSWNQQVTQMALWAIMAAPLFMSNDLRHISPQAKALLQDKDVIAINQDPLGKQGYQLRQGDNFEVWERPLSGLAWAVAMINRQEIGGPRSYTIAVASLGKGVACNPACFITQLLPVKRKLGFYEWTSRLRSHINPTGTVLLQLENTMQMSLKDLL
B1 was tested, and the binding was “binds”.

Results are given in words; binding and its absence hold for the method and conditions named. Binding seen in cells or lysates may run through a third protein. Here binding means that the protein was enriched with, or labelled near, the bait; the list need not be complete.
